Among all 360,000 compounds or so, about 10,000 (2.8%) were called active. The shares of active, inactive and inconclusive entries below differ from those in the screen. Calls come from the whole dose curve; as a rule, active = well fitted inhibition curve with a large enough effect; inconclusive = small, poorly fitted or top-dose-only effect; inactive = flat fitted curve, though single readings scatter. Potencies beside an inconclusive call are fits to weak or partial responses and may not hold up.
Target: Serine/threonine-protein kinase PLK1 (Homo sapiens) (UniProt P53350)
Assay: qHTS for Inhibitors of PLK1-PDB (polo-like kinase 1 - polo-box domain): Primary Screen; note: nearly all actives have a fitted effect of over 65% in size; for max response, negative = inhibition: series mostly up to about 57 µM
Conditions: Plk1 PBD binding of FITC phosphopeptide, fluorescence polarization
% is set by controls: 0 for no effect and ±100 for the full control effect; potency is the fitted concentration of half-maximal effect.

The chains behind the UniProt entries cited, without tags or fusion partners.
UniProt P53350, whole entry, looked up: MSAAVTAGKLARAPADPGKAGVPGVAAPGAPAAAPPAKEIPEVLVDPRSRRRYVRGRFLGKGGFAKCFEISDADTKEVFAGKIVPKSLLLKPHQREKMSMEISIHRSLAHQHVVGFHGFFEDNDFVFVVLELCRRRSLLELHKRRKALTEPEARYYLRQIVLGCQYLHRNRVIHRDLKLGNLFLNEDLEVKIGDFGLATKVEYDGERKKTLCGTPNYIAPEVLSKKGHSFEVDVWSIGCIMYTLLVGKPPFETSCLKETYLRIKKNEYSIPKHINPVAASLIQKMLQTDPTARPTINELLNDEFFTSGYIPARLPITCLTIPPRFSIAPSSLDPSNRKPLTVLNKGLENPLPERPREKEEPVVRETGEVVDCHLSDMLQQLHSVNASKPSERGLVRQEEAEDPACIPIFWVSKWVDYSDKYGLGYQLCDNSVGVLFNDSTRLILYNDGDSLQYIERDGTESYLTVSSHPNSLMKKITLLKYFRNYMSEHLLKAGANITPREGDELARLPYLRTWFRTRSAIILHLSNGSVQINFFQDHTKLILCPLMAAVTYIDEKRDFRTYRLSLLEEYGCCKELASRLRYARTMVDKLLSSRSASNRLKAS

| SMILES | Potency | max response, negative = inhibition |
| --- | --- | --- |
| C=CCNc1nnc(SC2CC(=O)N(c3ccc(OC)cc3)C2=O)s1 (stereo unspecified) | active: 26.7 µM |  |
| CC(=O)c1cccc(NC(=O)CSC(=O)c2ccccc2)c1 | inconclusive: 13.4 µM [inhibitor, partial curve] |  |
| CCc1cc2c(=O)oc(-c3ccccc3F)nc2s1 | inconclusive: 26.7 µM [inhibitor, partial curve] |  |
| Cc1ccc(C(=O)N/C(=C\c2cn(S(=O)(=O)N(C)C)c3ccccc23)C(=O)NCCCN2CCOCC2)cc1 | inconclusive: 21.2 µM [inhibitor, partial curve] |  |
| CC(C)Sc1nc2c(c(=O)[nH]c(=O)n2C)n1Cc1ccc(Cl)cc1 | inconclusive: 29.9 µM [inhibitor, partial curve] |  |
| CC1(C)[C@@H](O)CC[C@]2(C)[C@H]3C(=O)C=C4[C@@H]5C[C@@](C)(C(=O)O)CC[C@]5(C)CC[C@@]4(C)[C@]3(C)CC[C@@H]12 | inconclusive: 37.7 µM [inhibitor, single point] |  |
| O=C(COC(=O)c1cc(=O)[nH]c(=O)[nH]1)Nc1cccc(Cl)c1 |  | inactive: -0.261% |
| CN(C)C(CNC(=O)c1cccc(C(F)(F)F)c1)c1ccco1 (stereo unspecified) |  | inactive: -4.17% |
| Cn1c(=O)c2c(-c3ccccc3)n(-c3ccccc3F)cc2n(C)c1=O | inconclusive: 23.8 µM [inhibitor, partial curve] |  |
| COCCn1c(NC(=S)NC(=O)C2CC2)cc(=O)[nH]c1=O | inconclusive: 26.7 µM [inhibitor, partial curve] |  |
| CCOCCCNC(=S)NCCCNc1nc2c(C)cc(C)cc2cc1C#N | active: 23.8 µM |  |
| Cc1ccccc1NC(=S)N(Cc1ccccc1)Cc1cccnc1 |  | inconclusive: -31.4% [inhibitor] |
| COc1ccccc1/C=C/C=N/NC(=O)c1ccc(=O)n(C)c1 | active: 29.9 µM |  |
| O=C(CN1C(=O)/C(=C2/SC(=S)N(CCS(=O)(=O)O)C2=O)c2ccccc21)Nc1cccc(C(F)(F)F)c1 | active: 10.6 µM |  |
| COCCNC(=O)C(C)N1c2cccc3cccc(c23)S1(=O)=O (stereo unspecified) | inconclusive: 21.2 µM [inhibitor, single point] |  |
| CN1C2CCC1CC(NC(=O)CSCc1ccc(Cl)cc1Cl)C2 (stereo unspecified) | inconclusive: 21.2 µM [inhibitor, single point] |  |
| NCCS | inconclusive: 7.52 µM [inhibitor, partial curve] |  |
| COc1ccc(NC(=S)N(CCCN2CCC(C)CC2)Cc2cccs2)cc1Cl | active: 16.8 µM |  |
| C#CCN(C[C@@H]1[C@@H](OC(=O)NCc2ccco2)[C@@H](OC(=O)NCc2ccco2)CN(C(=O)OC(C)C)N1C(=O)OC(C)C)S(=O)(=O)c1ccc(C)cc1 | inconclusive: 26.7 µM [inhibitor, single point] |  |
| O=C(NNC(=S)Nc1ccccc1)Nc1ccccc1 |  | inconclusive: -33.3% [inhibitor] |
| Cc1ccc(NC(=S)NNc2ccc(C(=O)O)cc2[N+](=O)[O-])cc1C | inconclusive: 5.97 µM [inhibitor, partial curve] |  |
| COc1cccc(C(=O)NCCS(=O)(=O)N2CC(C)CC(C)C2)c1 (stereo unspecified) |  | inactive: -1.56% |
| CC(C)(C)NC(=O)C12CC3CC(CC(Cl)(C3)C1)C2 |  | inactive: -11.4% |

In the list so far, 10 have nitrogen in an aromatic ring:

| SMILES | Potency | max response, negative = inhibition |
| --- | --- | --- |
| C=CCNc1nnc(SC2CC(=O)N(c3ccc(OC)cc3)C2=O)s1 (stereo unspecified) | active: 26.7 µM |  |
| CCc1cc2c(=O)oc(-c3ccccc3F)nc2s1 | inconclusive: 26.7 µM [inhibitor, partial curve] |  |
| Cc1ccc(C(=O)N/C(=C\c2cn(S(=O)(=O)N(C)C)c3ccccc23)C(=O)NCCCN2CCOCC2)cc1 | inconclusive: 21.2 µM [inhibitor, partial curve] |  |
| CC(C)Sc1nc2c(c(=O)[nH]c(=O)n2C)n1Cc1ccc(Cl)cc1 | inconclusive: 29.9 µM [inhibitor, partial curve] |  |
| O=C(COC(=O)c1cc(=O)[nH]c(=O)[nH]1)Nc1cccc(Cl)c1 |  | inactive: -0.261% |
| Cn1c(=O)c2c(-c3ccccc3)n(-c3ccccc3F)cc2n(C)c1=O | inconclusive: 23.8 µM [inhibitor, partial curve] |  |
| COCCn1c(NC(=S)NC(=O)C2CC2)cc(=O)[nH]c1=O | inconclusive: 26.7 µM [inhibitor, partial curve] |  |
| CCOCCCNC(=S)NCCCNc1nc2c(C)cc(C)cc2cc1C#N | active: 23.8 µM |  |
| Cc1ccccc1NC(=S)N(Cc1ccccc1)Cc1cccnc1 |  | inconclusive: -31.4% [inhibitor] |
| COc1ccccc1/C=C/C=N/NC(=O)c1ccc(=O)n(C)c1 | active: 29.9 µM |  |

More structures follow.

| SMILES | Potency | max response, negative = inhibition |
| --- | --- | --- |
| NS(=O)(=O)c1ccc(NC(=S)NCc2ccccc2Cl)cc1 |  | inconclusive: -33.8% [inhibitor] |
| Oc1[nH]c2ccccc2c1N=Nc1nncc2ccccc12 | inconclusive: 26.7 µM [inhibitor, partial curve] |  |
| CSc1nc2c(=S)[nH]c(=S)[nH]c2s1 | active: 21.2 µM |  |
| Cc1ccc(N2C(=O)C3CCCN3C2=S)c(C)c1 (stereo unspecified) | inconclusive: 18.9 µM [inhibitor, partial curve] |  |
| CCCCC(c1nnnn1CCOC)N1CCN(C(=O)c2ccco2)CC1 (stereo unspecified) | inconclusive: 21.2 µM [inhibitor, partial curve] |  |
| O=[N+]([O-])c1ccc(COc2cccc(CN3CCCCC3)c2)cc1 |  | inactive: -1.94% |
| CCOC(=O)C1CCN(C(=O)CNC(=O)OC(C)(C)C)CC1 | inconclusive: 21.2 µM [inhibitor, single point] |  |
| CCOc1ccc(CCNC(=O)CCS(=O)(=O)c2ccc(Cl)cc2)cc1OCC | inconclusive: 26.7 µM [inhibitor, partial curve] |  |
| Cc1ccc(C(=O)Nc2ccc(Cc3ccncc3)cc2)cc1[N+](=O)[O-] |  | inactive: -5.19% |
| CCOc1cccc(/C=C2\NC(=S)N(c3ccccc3)C2=O)c1O |  | inactive: 3.11% |
| OCCCNC(c1ccccc1)c1ccc(O)cc1 (stereo unspecified) | inconclusive: 26.7 µM [inhibitor, partial curve] |  |
| C[N+]1(CCC(=O)c2ccccc2)CCCCC1 | active: 11.9 µM |  |
| CCc1ccccc1N1CC23C=CC(O2)C(C(=O)OCC(C)C)C3C1=O (stereo unspecified) | inconclusive: 37.7 µM [inhibitor, single point] |  |
| COC(=O)C1=C(C)n2cnnc2NC1c1ccc(Cl)cc1 (stereo unspecified) | inconclusive: 37.7 µM [inhibitor, single point] |  |
| COc1ccc(C(C)=O)cc1COC(=O)CCC(=O)c1cccs1 | inconclusive: 26.7 µM [inhibitor, single point] |  |
| O=C(CCc1nnc(CCc2c[nH]c3ccccc23)o1)NC1CCC1 | active: 23.8 µM |  |
| Cc1c(C(=O)NC(C)CCc2ccccc2)cccc1[N+](=O)[O-] (stereo unspecified) | active: 11.9 µM |  |
| CCc1cccc2c(C(=S)N3CCCC3)c[nH]c12 |  | inactive: -13.9% |
| CCn1c2ccccc2c2nc3cc(S(=O)(=O)N4CCOCC4)ccc3nc21 | active: 0.67 µM |  |
| S=c1[nH]nc(-c2cccs2)n1/N=C/c1cccs1 | active: 37.7 µM |  |
| Cn1c(=O)[nH]c(=O)c2c1nc(N/N=C/C(Br)=C/c1ccccc1)n2CCO | inconclusive: 1.5 µM [inhibitor, full curve] |  |
| CC1CCC(C(C)C)C2=C1C(C#N)(C#N)C(C#N)(C#N)C(c1ccccc1)N2 (stereo unspecified) | inconclusive: 23.8 µM [inhibitor, single point] |  |
| CCOc1nc(NC2CCCC2)nc(N2CCC(C)CC2)n1 | active: 18.9 µM |  |

Source: PubChem BioAssay AID720504 (National Center for Advancing Translational Sciences (NCATS), 2013)
